These results are taken from PMC9239968.

Experiment [1] concerns the target T1, RIP1 (mouse (endogenous in mouse brain)) (UniProt Q60855).
T1 sequence: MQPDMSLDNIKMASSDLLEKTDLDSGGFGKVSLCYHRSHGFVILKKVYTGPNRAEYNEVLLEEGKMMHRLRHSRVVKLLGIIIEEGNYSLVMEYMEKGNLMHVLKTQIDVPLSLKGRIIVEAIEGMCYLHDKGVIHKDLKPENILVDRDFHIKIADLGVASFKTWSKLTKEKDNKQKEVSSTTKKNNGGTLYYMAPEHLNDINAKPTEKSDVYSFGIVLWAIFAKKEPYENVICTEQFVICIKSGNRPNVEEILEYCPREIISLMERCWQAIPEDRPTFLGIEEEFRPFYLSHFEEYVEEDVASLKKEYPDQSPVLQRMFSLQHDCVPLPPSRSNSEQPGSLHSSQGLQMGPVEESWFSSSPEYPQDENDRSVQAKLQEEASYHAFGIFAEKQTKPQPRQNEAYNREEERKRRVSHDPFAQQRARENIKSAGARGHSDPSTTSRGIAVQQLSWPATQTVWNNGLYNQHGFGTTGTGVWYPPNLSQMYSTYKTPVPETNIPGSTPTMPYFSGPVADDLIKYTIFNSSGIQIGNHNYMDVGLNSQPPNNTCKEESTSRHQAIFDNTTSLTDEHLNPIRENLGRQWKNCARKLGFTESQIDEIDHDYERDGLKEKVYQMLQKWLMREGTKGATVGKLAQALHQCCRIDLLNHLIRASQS
As to the kind of experiment: co-IP; lysates of whole-brain tissue from AC-infected (21 days) and normal control mice; immunoprecipitated with anti-RIP1 antibody or IgG control, protein G agarose, 4 °C; immunoblotting of the precipitate.

The target in experiment [2] is T2, RIP1 (mouse (endogenous in mouse brain)), Q60855.
T2 chain: T1 sequence
The experiment is described as above. The note with it: remark: other sources report otherwise.

For experiment [3], the target named is receptor interacting kinase protein3 (RIP3) (mouse (endogenous in mouse brain)) (UniProt Q9QZL0). As to the kind of experiment: co-IP; lysates of brain tissue from AC-infected (21 days) and normal control mice; immunoprecipitated with anti-RIP3 antibody or IgG antibody, protein G agarose, 4 °C; immunoblotting of the precipitate. In general terms: In western blotting, separated proteins are transferred to a membrane and probed.

The target of experiment [4] is receptor interacting kinase protein3 (RIP3) (mouse (endogenous in mouse brain)), Q9QZL0. The experiment is described as above. Conditions: remark: other sources report otherwise.

No constants are given. Whether binding was seen depends on the method and setting. Binding seen in cells or lysates may run through a third protein. Some entries that bind do so weakly or less than the wild type.

B1: caspase-8 (protein, UniProt O89110 1-480)
chain: MDFQSCLYAIAEELGSEDLAALKFLCLDYIPHKKQETIEDAQKLFLRLREKGMLEEGNLSFLKELLFHISRWDLLVNFLDCNREEMVRELRDPDNAQISPYRVMLFKLSEEVSELELRSFKFLLNNEIPKCKLEDDLSLLEIFVEMEKRTMLAENNLETLKSICDQVNKSLLGKIEDYERSSTERRMSLEGREELPPSVLDEMSLKMAELCDSPREQDSESRTSDKVYQMKNKPRGYCLIINNHDFSKAREDITQLRKMKDRKGTDCDKEALSKTFKELHFEIVSYDDCTANEIHEILEGYQSADHKNKDCFICCILSHGDKGVVYGTDGKEASIYDLTSYFTGSKCPSLSGKPKIFFIQACQGSNFQKGVPDEAGFEQQNHTLEVDSSSHKNYIPDEADFLLGMATVKNCVSYRDPVNGTWYIQSLCQSLRERCPQGDDILSILTGVNYDVSNKDDRRNKGKQMPQPTFTLRKKLFFPP
Take B1: the binding entry in experiment [1] is on record as “binds”.

B2: receptor interacting kinase protein3 (RIP3), Q9QZL0 1-486 (protein)
chain: MSSVKLWPTGASAVPLVSREELKKLEFVGKGGFGVVFRAHHRTWNHDVAVKIVNSKKISWEVKAMVNLRNENVLLLLGVTEDLQWDFVSGQALVTRFMENGSLAGLLQPECPRPWPLLCRLLQEVVLGMCYLHSLNPPLLHRDLKPSNILLDPELHAKLADFGLSTFQGGSQSGSGSGSGSRDSGGTLAYLDPELLFDVNLKASKASDVYSFGILVWAVLAGREAELVDKTSLIRETVCDRQSRPPLTELPPGSPETPGLEKLKELMIHCWGSQSENRPSFQDCEPKTNEVYNLVKDKVDAAVSEVKHYLSQHRSSGRNLSAREPSQRGTEMDCPRETMVSKMLDRLHLEEPSGPVPGKCPERQAQDTSVGPATPARTSSDPVAGTPQIPHTLPFRGTTPGPVFTETPGPHPQRNQGDGRHGTPWYPWTPPNPMTGPPALVFNNCSEVQIGNYNSLVAPPRTTASSSAKYDQAQFGRGRGWQPFHK
Take B2: the binding entry in experiment [2] is “no binding”.

B3: MLKL (protein, UniProt Q9D2Y4 1-472)
chain: MDKLGQIIKLGQLIYEQCEKMKYCRKQCQRLGNRVHGLLQPLQRLQAQGKKNLPDDITAALGRFDEVLKEANQQIEKFSKKSHIWKFVSVGNDKILFHEVNEKLRDVWEELLLLLQVYHWNTVSDVSQPASWQQEDRQDAEEDGNENMKVILMQLQISVEEINKTLKQCSLKPTQEIPQDLQIKEIPKEHLGPPWTKLKTSKMSTIYRGEYHRSPVTIKVFNNPQAESVGIVRFTFNDEIKTMKKFDSPNILRIFGICIDQTVKPPEFSIVMEYCELGTLRELLDREKDLTMSVRSLLVLRAARGLYRLHHSETLHRNISSSSFLVAGGYQVKLAGFELSKTQNSISRTAKSTKAERSSSTIYVSPERLKNPFCLYDIKAEIYSFGIVLWEIATGKIPFEGCDSKKIRELVAEDKKQEPVGQDCPELLREIINECRAHEPSQRPSVDGRSLSGRERILERLSAVEESTDKKV
In the case of B3, the binding entry in experiment [3] is reported as “binds”.

B4: FADD (protein, UniProt Q61160 1-205)
chain: MDPFLVLLHSLSGSLSGNDLMELKFLCRERVSKRKLERVQSGLDLFTVLLEQNDLERGHTGLLRELLASLRRHDLLQRLDDFEAGTATAAPPGEADLQVAFDIVCDNVGRDWKRLARELKVSEAKMDGIEEKYPRSLSERVRESLKVWKNAEKKNASVAGLVKALRTCRLNLVADLVEEAQESVSKSENMSPVLRDSTVSSSETP
In the case of B4, in experiment [1], the binding entry is on record as “binds”.

B5: FADD, Q61160 1-205 (protein)
chain: B4 chain
For the molecule B5, in experiment [4], the binding entry is given as “no binding”.

B6: RIP1, Q60855 1-656 (protein)
chain: T1 sequence
B6: in experiment [4], the binding result was “no binding”.
